Source: PubChem BioAssay AID1259415 (National Center for Advancing Translational Sciences (NCATS), 2018)
About 18,000 (4.4%) of roughly 410,000 compounds were called active. Inconclusive results, whose numbers are uncertain, are shown with a selection of clear calls. No stated cut-off is given here; in the data, active means activity change below about -60%; inconclusive means no clear call, values can overlap the other calls; inactive means above about -39%.

Assay: qHTS Assay for inhibitors of the human cytomegalovirus (HCMV)
Details: HFF cells, HCMV-luciferase reporter, 72 h; at 57.5 µM; active compounds read low
Method in brief: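 Luciferase read-out from HCMV-luciferase-infected HFFs (MOI 1 PFU/cell) 72 h post infection at 37C; compounds added after 16 h cell attachment; activity normalized between buffer-only basal and Salinomycin (10uM) inhibitor controls.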
On the % scale 0 is the no-effect control and ±100 the full control effect.

Row | SMILES | activity change, negative = inhibition
1 | O=C(NCC1CCN(Cc2ccccc2Cl)CC1)Nc1cccc(Cl)c1 | inconclusive: -41.5%
2 | CCNC(=O)C1(C)CCCN(C(=O)c2nc3ccccc3s2)C1 (stereo not drawn) | inactive: -6.41%
3 | CC[C@]12c3[nH]c4cc(-c5ccco5)ccc4c3CCN1C(=O)[C@@H](CC(=O)NCc1cccc(C(F)(F)F)c1)C[C@@H]2C(=O)N1CCN(C(=O)c2ccco2)CC1 | inactive: -2.54%
4 | CC(CNc1ccccc1O)C(=O)O (stereo not drawn) | inconclusive: -44.6%
5 | CC1CC(C)CN(C(=O)COC(=O)c2cc([N+](=O)[O-])ccc2N2CCOCC2)C1 (stereo not drawn) | inactive: -4.71%
6 | Cc1cc(=O)[nH]c2c3ccccc3nn12 | inconclusive: -45.2%
7 | Cn1c(=O)oc2cc(S(=O)(=O)N3CCC(C(=O)Nc4ccc(OC(F)(F)F)cc4)CC3)ccc21 | inconclusive: -42.8%
8 | c1ccc(-c2cc(NCCN3CCCCC3)c3ccccc3n2)cc1 | active: -99.6%
9 | O=C(c1sc2ccccc2c1Cl)N1CCN(CCc2ccccn2)CC1 | inconclusive: -45%
10 | Cc1ccccc1NC(=O)CSc1nc(N)c2c3c(sc2n1)CSC(C)(C)C3 | inconclusive: -42.7%
11 | Cn1nc(Oc2ncc(C(F)(F)F)cc2Cl)cc1C(F)(F)F | inconclusive: -46.6%
12 | O=c1c([N+](=O)[O-])c(N2CCOCC2)c2ccccc2n1Cc1ccccc1 | active: -66.7%
13 | COc1ccccc1OCCOC(=O)Nc1ccccc1 | inactive: -15.1%
14 | CCOc1cc(C(=S)N2CCOCC2)ccc1OS(=O)(=O)c1ccccc1[N+](=O)[O-] | inconclusive: -41.3%
15 | CCOc1ccc(CNC(=O)CCC(=O)N2Cc3cccc(OC)c3Oc3ncccc32)cc1 | inconclusive: 0%
16 | O=C(Nc1ccc(CN2CCOCC2)cc1)c1ccc(-c2ccc(Cl)cc2Cl)o1 | active: -64.7%
17 | O=C(CCSCCc1ccccn1)Nc1c(F)c(F)c(F)c(F)c1F | inconclusive: -43.8%
18 | CC(C)(C)c1csc(NC(=O)c2cccnc2Cl)n1 | inactive: 41.8%
19 | O=C(CNCCc1ccc(Cl)cc1)Nc1ccc(C(=O)N2CCCCC2)cc1 | inconclusive: -59.7%
20 | CN(C)c1nc(C(=O)NN)nc(N(C)C)n1 | inconclusive: -46.8%
21 | C=CCn1c(CSCc2ccccc2)nnc1SCC(=O)N1CCN(c2ccccc2)CC1 | inconclusive: -50.2%

Reformatted tab-delimited: 17 of the compounds above
Row	SMILES	activity change, negative = inhibition
4	CC(CNc1ccccc1O)C(=O)O (stereo not drawn)	inconclusive: -44.6%
5	CC1CC(C)CN(C(=O)COC(=O)c2cc([N+](=O)[O-])ccc2N2CCOCC2)C1 (stereo not drawn)	inactive: -4.71%
6	Cc1cc(=O)[nH]c2c3ccccc3nn12	inconclusive: -45.2%
7	Cn1c(=O)oc2cc(S(=O)(=O)N3CCC(C(=O)Nc4ccc(OC(F)(F)F)cc4)CC3)ccc21	inconclusive: -42.8%
8	c1ccc(-c2cc(NCCN3CCCCC3)c3ccccc3n2)cc1	active: -99.6%
9	O=C(c1sc2ccccc2c1Cl)N1CCN(CCc2ccccn2)CC1	inconclusive: -45%
10	Cc1ccccc1NC(=O)CSc1nc(N)c2c3c(sc2n1)CSC(C)(C)C3	inconclusive: -42.7%
11	Cn1nc(Oc2ncc(C(F)(F)F)cc2Cl)cc1C(F)(F)F	inconclusive: -46.6%
12	O=c1c([N+](=O)[O-])c(N2CCOCC2)c2ccccc2n1Cc1ccccc1	active: -66.7%
13	COc1ccccc1OCCOC(=O)Nc1ccccc1	inactive: -15.1%
14	CCOc1cc(C(=S)N2CCOCC2)ccc1OS(=O)(=O)c1ccccc1[N+](=O)[O-]	inconclusive: -41.3%
15	CCOc1ccc(CNC(=O)CCC(=O)N2Cc3cccc(OC)c3Oc3ncccc32)cc1	inconclusive: 0%
16	O=C(Nc1ccc(CN2CCOCC2)cc1)c1ccc(-c2ccc(Cl)cc2Cl)o1	active: -64.7%
17	O=C(CCSCCc1ccccn1)Nc1c(F)c(F)c(F)c(F)c1F	inconclusive: -43.8%
18	CC(C)(C)c1csc(NC(=O)c2cccnc2Cl)n1	inactive: 41.8%
19	O=C(CNCCc1ccc(Cl)cc1)Nc1ccc(C(=O)N2CCCCC2)cc1	inconclusive: -59.7%
20	CN(C)c1nc(C(=O)NN)nc(N(C)C)n1	inconclusive: -46.8%

2 entries from above, tab-delimited.
Row	SMILES	activity change, negative = inhibition
10	Cc1ccccc1NC(=O)CSc1nc(N)c2c3c(sc2n1)CSC(C)(C)C3	inconclusive: -42.7%
15	CCOc1ccc(CNC(=O)CCC(=O)N2Cc3cccc(OC)c3Oc3ncccc32)cc1	inconclusive: 0%

(next part)

Row | SMILES | activity change, negative = inhibition
22 | CCCCn1c(SCC(=O)Nc2cc(C(F)(F)F)ccc2Cl)nnc1C(CC)N(C)C (stereo not drawn) | inconclusive: -55.6%
23 | CC1=C([N+](=O)[O-])C(c2ccccc2)C2=C(N1)c1ccccc1C2=O (stereo not drawn) | inconclusive: -47.2%
24 | O=C(CN1CCc2cc3c(cc2C1)OCCCO3)Nc1ccc(F)cc1 | inconclusive: -42.3%
25 | COc1ccccc1C(=O)NCCC(=O)Nc1cccc(S(=O)(=O)N2CCCC2)c1 | inconclusive: -55.1%
26 | COc1ccc(N(C(=O)CS(=O)CC(=O)Nc2ccc(F)cc2)C(C(=O)NC2CCCCC2)c2cccs2)cc1 (stereo not drawn) | inconclusive: -45.7%
27 | Cc1nn2c(-c3ccccn3)ccnc2c1Br | inconclusive: -56.5%
28 | O=S(=O)(Cc1ccccc1)N1CCCCCC1 | inconclusive: -42.3%
29 | COc1cccc(CNc2nc3cc(-c4cccc(Cl)c4)sc3c(=O)n2C)c1OC | inconclusive: -46.8%
30 | CC1CCCN(CCCNC(=O)CN2C(=O)CSc3ccc(S(=O)(=O)N4CCOCC4)cc32)C1 (stereo not drawn) | inconclusive: -43.7%
31 | O=C(COc1cccc(-n2cnnn2)c1)NCCC1=CCCCC1 | inconclusive: -52.6%
32 | CCC(C)NC(=O)C1CCN(S(=O)(=O)c2cccnc2)CC1 (stereo not drawn) | active: -75.9%
33 | Cc1ccc(C2=CC(c3ccc(N(C)C)cc3)n3nnnc3N2)cc1 (stereo not drawn) | active: -76.1%
34 | O=C(Nc1ccc(S(=O)(=O)NCC2CCCO2)cc1)c1ccc(F)cc1 (stereo not drawn) | active: -71.5%
35 | O=c1c2c(-c3ccc([N+](=O)[O-])cc3)csc2nc2n1CCCCC2 | inconclusive: -47.2%
36 | COc1ccc(N2C(c3ccsc3)=Cc3cc4c(cc3C2c2c[nH]c3ccccc23)OCO4)cc1 (stereo not drawn) | active: -95.1%
37 | CCCSc1ccc([C@@H]2[C@H]3C(=O)N(C)C(=O)[C@H]3[C@]3(C(=O)OC)CCCN23)cc1OC | inactive: 10.1%
38 | Cc1ccc(Cn2ccsc2=NC(=O)COC(=O)C(C)C)cc1 | inconclusive: -40.1%
39 | CC[C@]12c3[nH]c4ccc(OC)cc4c3CCN1C(=O)C(CC(=O)NCc1cccc(C(F)(F)F)c1)C[C@@H]2C(=O)N1CCN(C(=O)c2ccco2)CC1 (stereo partly drawn) | inactive: 44.1%
40 | O=C(OCC(=O)N1CCCCCC1)c1ccc([N+](=O)[O-])cc1Cl | inactive: -9.28%
41 | COc1ccc(CCNC(=O)COc2ccc(S(=O)(=O)NC3CCCCC3)cc2Cl)cc1 | inconclusive: -57.8%
42 | c1cnn2c(-c3ccc4c(c3)CCO4)cnc2c1 | inconclusive: -55.9%

Row | SMILES | activity change, negative = inhibition
43 | CC1CCN(S(=O)(=O)c2cccc(C(=O)N(Cc3ccccc3)c3ccccn3)c2)CC1 | active: -65.6%
44 | COc1ccccc1CNC(=O)c1cnn2c(C)c(Cc3ccc(F)cc3)c(C)nc12 | inactive: 6.24%
45 | CC(=O)N1CC(C)Sc2ccc(S(=O)(=O)NC3CCCCC3C)cc21 (stereo not drawn) | inconclusive: -51.5%
46 | COc1ccc(Cl)cc1NC(=O)c1sc2nc(C)nc(N3CCOCC3)c2c1C | inactive: 3.12%
47 | CCN(Cc1ccccc1)C(c1ccc(Cl)cc1)c1nnnn1C(C)(C)C (stereo not drawn) | active: -97.4%
48 | Cc1ccc(-c2cc(C(=O)NCC(c3ccccc3)N(C)C)c3ccccc3n2)o1 (stereo not drawn) | inconclusive: -42.6%
49 | Cc1ccc(NC(=O)Nc2ccc(F)c(Cl)c2)cc1 | inconclusive: -59.5%
50 | O=C(c1ccco1)N1CCN(c2ncnc3scc(-c4cccs4)c23)CC1 | inconclusive: -58.2%
51 | CCCc1cc2c(-c3ccccc3)cc(=O)oc2cc1OCc1ccc(C(=O)O)o1 | inconclusive: -43.2%
52 | O=C(CSc1nnc(-c2ccccc2)n1-c1ccc(Cl)cc1)NNC(=S)Nc1ccccc1 | inconclusive: -50.4%
53 | O=C(CSCc1ccccc1Br)N/N=C/c1ccc2c(c1)OCO2 | inconclusive: -44.7%
54 | COc1ccccc1N1CCN(Cc2cc(COC(C)C)c3cccnc3c2O)CC1 | active: -84.9%
55 | O=C(Cc1ccccc1)NCC(=O)N/N=C/c1ccc(Cl)cc1 | inconclusive: -51.8%
56 | Cn1c(N)c(C#N)c(C#N)c1-c1ccccc1 | inconclusive: -49.8%
57 | N#Cc1c(SCC(N)=O)nc(-c2ccccc2)c2c1CCCC2 | inconclusive: -52.4%
58 | COc1ccc(S(=O)(=O)N(C(=O)c2ccncc2)c2ccc3oc(C)c(C(C)=O)c3c2)cc1 | inconclusive: -47.7%
59 | CCOc1ccccc1-c1nc(CN2CCC(C(=O)N3CCOCC3)CC2)c(C)o1 | inconclusive: -47.6%
60 | CC[C@H](C)NC(=O)CCCc1nnc2n(CCC(C)C)c(=O)c3sccc3n12 | inconclusive: -55.5%
61 | COc1ccc([C@H]2CC(=O)C=C(c3c(OC)cccc3OC)C2)cc1 | inactive: 24.9%
62 | O=c1cc(N2CCN(c3ccc(F)cc3)CC2)[nH]c(=O)n1-c1cccc(Br)c1 | inactive: 59.8%
63 | CC(C)c1ccc(Cc2cnc(NC(=O)c3ccc4c(c3)CC(c3ccccc3)OC4=O)s2)cc1 (stereo not drawn) | inactive: -23.6%

Row | SMILES | activity change, negative = inhibition
64 | CCCCc1cc(=O)oc2cc(OCC(=O)NCCN3CCOCC3)c(Cl)cc12 | inconclusive: -44.1%
65 | O=C(O)/C(=N/NC(=O)c1ccc(Cl)cc1)c1ccccc1 | inconclusive: -43.1%
66 | O=C(CSc1ccccc1)NC(=O)NCc1ccccc1 | inconclusive: -41.9%
67 | O=C(Cc1cccc2ccccc12)N/N=C/c1ccc2cccc(O)c2n1 | inconclusive: -48.1%
68 | Cc1ccccc1C(=O)Nc1ccc2nc(SCC(=O)N(C)c3ccccc3)sc2c1 | inconclusive: -57.2%
69 | CCOc1ccccc1NC(=O)N1CCCN(c2ncccc2C#N)CC1 | inconclusive: -42.3%
70 | Cc1cc(C)c(-c2csc(NC(=O)COC(=O)c3ccc4c(c3)OCO4)n2)c(C)c1 | inconclusive: -44.6%
71 | O=C(Cc1ccc(S(=O)(=O)N2CCOCC2)s1)N1CCN(c2ccc(C(F)(F)F)cc2[N+](=O)[O-])CC1 | inconclusive: -44.8%
72 | Cc1cc(C)c(NC(=O)CNC(=O)CN(C)Cc2ccc(Br)s2)c(C)c1 | inactive: 0%
73 | CCN1C/C(=C/c2cccc([N+](=O)[O-])c2)C(=O)/C(=C/c2cccc([N+](=O)[O-])c2)C1 | active: -103%
74 | CCCCNC(=O)C(C)N(CCN(C)C)C(=O)CCCCCN1C(=O)NC(c2ccc(Cl)cc2)C(C(=O)OCc2ccccc2)=C1C (stereo not drawn) | inconclusive: -52%
75 | Cc1nc2ccc(NC(=O)c3ccc(Cl)c(S(=O)(=O)N(C)c4ccccc4)c3)cc2s1 | active: -101%
76 | COc1cccc(CNC(=O)C2CCN(c3ncnc4c3nc3n4CCCCC3)CC2)c1 | inconclusive: -50.7%
77 | O=C(Nc1cc(-c2nc3ccccc3o2)ccc1Cl)c1cc([N+](=O)[O-])ccc1N1CCOCC1 | inactive: 17.1%
78 | Cc1ccc(NC(=O)C(C)c2ccc(-c3ccccc3)c(F)c2)cc1 (stereo not drawn) | inconclusive: -59.6%
79 | COc1ccc(NS(=O)(=O)c2cc(NC(=O)c3ccccc3F)ccc2N2CCCC2)cc1 | inconclusive: -59.4%
80 | Cc1cc(C)c(NC(=O)/C(C#N)=C/c2ccc(OCc3ccc(F)cc3)cc2)c(C)c1 | inconclusive: -43.2%
81 | CC(C)(C)OC(=O)N1CCC(c2c(C(=O)NCc3ccccn3)cnn2-c2ccccc2Cl)CC1 | inconclusive: 0%
82 | O=C(COC(=O)CC1CCCC1)Nc1cccc(F)c1 | inactive: 4.77%
83 | CCN(CC(=O)Nc1cccc(Br)c1)Cc1nc2ccccc2c(=O)[nH]1 | inactive: -13%
